From article doi:10.1101/2024.02.07.579305
These are yes or no findings as the source states them, for the method shown. Some entries that bind do so weakly or less than the wild type. Blank lines part the entries; values can stand above or below the substance they belong to.

By UniProt entry, the sequences of proteins in these tests, tags left out. Where a name states a change or a piece, a line headed by the entry shows the natural chain unless it says otherwise.
UniProt Q6P9B9: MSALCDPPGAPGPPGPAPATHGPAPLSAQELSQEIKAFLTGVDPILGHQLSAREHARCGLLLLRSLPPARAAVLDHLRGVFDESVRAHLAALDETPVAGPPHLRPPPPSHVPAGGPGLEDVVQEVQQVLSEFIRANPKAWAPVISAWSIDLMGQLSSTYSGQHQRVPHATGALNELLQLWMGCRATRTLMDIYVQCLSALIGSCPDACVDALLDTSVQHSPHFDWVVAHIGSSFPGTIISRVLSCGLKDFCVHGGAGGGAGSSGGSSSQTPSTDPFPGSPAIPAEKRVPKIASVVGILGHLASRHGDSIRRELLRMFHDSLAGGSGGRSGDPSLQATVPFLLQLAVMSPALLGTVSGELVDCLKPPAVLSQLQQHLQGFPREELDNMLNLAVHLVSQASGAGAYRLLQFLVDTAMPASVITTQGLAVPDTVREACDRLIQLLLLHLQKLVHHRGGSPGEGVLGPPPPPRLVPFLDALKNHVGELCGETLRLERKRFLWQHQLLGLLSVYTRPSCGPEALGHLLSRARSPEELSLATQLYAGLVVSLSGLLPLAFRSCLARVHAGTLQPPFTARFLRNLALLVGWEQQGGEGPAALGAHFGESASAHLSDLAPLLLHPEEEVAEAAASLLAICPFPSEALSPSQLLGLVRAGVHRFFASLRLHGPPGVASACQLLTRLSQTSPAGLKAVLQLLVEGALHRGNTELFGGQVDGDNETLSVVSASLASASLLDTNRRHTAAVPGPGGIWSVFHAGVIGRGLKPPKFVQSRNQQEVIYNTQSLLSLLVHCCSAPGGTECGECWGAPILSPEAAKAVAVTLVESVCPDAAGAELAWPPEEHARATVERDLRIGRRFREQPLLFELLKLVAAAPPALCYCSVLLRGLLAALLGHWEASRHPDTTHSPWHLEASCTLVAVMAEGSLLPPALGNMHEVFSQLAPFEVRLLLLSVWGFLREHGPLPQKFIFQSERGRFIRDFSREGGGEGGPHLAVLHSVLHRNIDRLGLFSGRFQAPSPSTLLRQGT
UniProt Q96N11: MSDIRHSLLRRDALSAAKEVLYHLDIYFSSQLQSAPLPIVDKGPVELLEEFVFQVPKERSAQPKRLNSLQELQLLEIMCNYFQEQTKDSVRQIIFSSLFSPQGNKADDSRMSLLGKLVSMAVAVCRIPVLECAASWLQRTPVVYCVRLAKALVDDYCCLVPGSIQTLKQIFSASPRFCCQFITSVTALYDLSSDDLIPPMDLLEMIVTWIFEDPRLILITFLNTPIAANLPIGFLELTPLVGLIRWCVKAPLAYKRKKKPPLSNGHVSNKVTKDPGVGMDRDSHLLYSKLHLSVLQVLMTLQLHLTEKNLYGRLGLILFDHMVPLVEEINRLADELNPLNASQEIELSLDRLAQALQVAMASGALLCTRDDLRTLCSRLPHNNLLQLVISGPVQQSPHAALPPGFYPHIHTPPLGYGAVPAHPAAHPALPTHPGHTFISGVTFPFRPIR
UniProt Q96HW7: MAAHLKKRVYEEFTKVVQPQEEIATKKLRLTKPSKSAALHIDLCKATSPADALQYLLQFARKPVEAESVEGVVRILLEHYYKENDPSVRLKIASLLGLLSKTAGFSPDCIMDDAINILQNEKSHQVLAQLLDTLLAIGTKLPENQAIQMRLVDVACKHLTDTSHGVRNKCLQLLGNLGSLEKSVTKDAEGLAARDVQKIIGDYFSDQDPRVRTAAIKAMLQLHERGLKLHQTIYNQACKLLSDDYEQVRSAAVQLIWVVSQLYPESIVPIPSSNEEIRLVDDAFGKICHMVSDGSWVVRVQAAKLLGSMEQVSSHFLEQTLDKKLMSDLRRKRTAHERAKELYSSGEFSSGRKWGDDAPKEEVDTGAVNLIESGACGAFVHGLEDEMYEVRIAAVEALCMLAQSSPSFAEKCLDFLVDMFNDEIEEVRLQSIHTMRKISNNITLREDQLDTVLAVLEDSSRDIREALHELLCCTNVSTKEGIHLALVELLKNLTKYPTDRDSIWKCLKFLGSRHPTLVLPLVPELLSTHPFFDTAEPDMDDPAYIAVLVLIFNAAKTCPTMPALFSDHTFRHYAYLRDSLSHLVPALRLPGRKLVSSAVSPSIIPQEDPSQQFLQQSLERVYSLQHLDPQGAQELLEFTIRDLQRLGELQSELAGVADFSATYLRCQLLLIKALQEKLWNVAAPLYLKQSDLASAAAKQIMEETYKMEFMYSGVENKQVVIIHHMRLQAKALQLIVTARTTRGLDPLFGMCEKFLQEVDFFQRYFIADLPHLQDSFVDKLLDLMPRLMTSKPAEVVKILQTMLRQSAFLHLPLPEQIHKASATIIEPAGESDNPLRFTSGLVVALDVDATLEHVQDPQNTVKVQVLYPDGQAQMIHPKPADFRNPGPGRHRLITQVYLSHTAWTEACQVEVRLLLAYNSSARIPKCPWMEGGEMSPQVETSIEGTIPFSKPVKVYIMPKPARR
UniProt Q9ULU4: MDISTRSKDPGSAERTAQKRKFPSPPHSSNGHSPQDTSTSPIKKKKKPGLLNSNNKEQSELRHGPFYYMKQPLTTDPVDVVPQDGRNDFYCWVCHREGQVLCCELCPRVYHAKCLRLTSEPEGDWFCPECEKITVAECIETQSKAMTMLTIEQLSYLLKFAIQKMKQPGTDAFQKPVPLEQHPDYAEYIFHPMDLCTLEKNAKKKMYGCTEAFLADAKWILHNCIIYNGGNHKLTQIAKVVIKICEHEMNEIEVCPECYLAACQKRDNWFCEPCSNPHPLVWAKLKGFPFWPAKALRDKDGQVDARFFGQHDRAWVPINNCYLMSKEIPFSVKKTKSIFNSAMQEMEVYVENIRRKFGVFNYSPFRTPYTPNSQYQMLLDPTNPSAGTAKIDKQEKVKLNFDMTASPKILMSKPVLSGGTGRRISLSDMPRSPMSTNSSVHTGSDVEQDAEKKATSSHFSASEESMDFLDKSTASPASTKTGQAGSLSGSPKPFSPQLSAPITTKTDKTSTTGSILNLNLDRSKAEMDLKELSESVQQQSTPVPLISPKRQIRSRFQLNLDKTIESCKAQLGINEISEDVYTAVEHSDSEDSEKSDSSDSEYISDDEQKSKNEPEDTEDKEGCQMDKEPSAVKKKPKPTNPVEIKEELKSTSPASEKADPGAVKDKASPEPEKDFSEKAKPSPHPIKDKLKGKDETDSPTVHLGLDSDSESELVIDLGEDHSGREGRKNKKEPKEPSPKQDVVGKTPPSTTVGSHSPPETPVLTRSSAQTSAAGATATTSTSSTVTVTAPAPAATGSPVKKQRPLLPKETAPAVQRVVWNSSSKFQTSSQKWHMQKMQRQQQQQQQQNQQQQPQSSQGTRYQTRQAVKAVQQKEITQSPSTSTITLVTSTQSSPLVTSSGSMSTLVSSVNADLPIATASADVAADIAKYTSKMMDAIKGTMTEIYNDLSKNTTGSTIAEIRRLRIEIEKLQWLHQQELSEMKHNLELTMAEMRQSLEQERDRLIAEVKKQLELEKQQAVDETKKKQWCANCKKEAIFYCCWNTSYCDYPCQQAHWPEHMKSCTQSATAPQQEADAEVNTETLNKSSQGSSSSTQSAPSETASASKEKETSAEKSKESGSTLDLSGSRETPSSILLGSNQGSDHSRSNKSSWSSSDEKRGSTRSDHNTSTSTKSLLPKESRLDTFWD
UniProt Q9NVR2: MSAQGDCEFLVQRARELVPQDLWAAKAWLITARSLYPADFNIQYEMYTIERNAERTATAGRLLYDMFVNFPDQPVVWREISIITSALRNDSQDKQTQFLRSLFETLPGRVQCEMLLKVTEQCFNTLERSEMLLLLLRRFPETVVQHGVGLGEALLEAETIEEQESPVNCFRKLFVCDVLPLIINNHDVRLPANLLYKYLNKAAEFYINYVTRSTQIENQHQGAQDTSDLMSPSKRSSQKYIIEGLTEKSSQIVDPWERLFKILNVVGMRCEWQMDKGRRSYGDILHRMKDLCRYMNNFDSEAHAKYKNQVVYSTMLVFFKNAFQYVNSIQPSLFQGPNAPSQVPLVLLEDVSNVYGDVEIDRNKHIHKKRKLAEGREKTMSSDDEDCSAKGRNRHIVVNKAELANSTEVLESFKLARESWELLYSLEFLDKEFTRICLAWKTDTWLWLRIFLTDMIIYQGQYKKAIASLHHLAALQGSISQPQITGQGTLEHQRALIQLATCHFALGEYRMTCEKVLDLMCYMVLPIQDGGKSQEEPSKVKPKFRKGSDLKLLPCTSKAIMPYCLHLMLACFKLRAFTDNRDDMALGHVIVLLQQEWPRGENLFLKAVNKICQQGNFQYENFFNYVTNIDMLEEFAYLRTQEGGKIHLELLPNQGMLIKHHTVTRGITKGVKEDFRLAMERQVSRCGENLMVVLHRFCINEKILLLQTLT
UniProt Q96SY0: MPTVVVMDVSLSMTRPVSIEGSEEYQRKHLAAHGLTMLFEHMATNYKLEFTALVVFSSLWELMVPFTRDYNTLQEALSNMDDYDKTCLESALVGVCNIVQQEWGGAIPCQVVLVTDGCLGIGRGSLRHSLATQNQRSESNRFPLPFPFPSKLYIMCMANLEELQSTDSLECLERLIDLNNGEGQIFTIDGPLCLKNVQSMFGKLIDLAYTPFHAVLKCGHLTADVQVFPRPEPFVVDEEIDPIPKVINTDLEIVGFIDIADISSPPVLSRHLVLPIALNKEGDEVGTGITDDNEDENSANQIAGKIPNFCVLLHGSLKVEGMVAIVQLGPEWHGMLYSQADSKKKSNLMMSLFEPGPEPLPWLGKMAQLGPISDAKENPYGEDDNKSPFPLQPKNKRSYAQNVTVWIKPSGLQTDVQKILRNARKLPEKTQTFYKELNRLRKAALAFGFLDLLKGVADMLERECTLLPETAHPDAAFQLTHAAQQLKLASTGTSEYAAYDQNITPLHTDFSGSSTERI
UniProt Q9NVM9: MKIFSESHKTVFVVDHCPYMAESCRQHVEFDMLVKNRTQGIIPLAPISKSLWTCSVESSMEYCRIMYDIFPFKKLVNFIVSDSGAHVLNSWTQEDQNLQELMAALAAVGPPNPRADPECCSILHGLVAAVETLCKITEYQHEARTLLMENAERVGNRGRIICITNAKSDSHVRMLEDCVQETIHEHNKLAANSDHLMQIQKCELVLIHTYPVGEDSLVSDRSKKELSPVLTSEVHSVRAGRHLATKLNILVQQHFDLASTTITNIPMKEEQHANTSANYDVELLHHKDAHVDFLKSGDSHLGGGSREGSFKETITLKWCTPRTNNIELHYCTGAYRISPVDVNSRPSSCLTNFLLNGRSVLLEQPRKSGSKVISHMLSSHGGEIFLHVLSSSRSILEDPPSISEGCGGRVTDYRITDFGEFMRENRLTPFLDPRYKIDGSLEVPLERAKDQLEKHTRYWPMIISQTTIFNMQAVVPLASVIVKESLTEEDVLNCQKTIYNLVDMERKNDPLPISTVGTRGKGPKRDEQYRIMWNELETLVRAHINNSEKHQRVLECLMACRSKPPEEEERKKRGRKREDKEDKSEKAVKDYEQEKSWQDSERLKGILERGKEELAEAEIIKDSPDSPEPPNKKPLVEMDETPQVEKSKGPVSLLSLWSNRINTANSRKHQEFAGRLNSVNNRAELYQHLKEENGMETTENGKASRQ
UniProt Q9NV88: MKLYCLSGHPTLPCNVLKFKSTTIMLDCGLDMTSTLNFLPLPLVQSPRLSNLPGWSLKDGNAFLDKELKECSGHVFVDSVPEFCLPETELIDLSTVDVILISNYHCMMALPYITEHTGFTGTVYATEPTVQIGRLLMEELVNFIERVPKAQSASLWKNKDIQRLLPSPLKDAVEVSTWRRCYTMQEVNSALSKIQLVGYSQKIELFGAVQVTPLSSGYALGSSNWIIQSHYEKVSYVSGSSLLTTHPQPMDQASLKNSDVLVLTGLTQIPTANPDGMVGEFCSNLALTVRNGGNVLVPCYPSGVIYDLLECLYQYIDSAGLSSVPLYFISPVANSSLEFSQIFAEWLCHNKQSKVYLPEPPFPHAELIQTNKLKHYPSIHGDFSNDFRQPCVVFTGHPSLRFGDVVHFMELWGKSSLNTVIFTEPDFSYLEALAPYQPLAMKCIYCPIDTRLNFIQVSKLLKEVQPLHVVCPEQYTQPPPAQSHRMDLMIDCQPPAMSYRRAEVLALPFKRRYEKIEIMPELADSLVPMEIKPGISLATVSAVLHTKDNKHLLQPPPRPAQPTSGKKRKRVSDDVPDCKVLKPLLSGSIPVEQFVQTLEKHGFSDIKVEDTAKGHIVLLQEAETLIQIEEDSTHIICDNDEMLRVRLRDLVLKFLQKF

Columns and labels:
[1] = target: INTS5 (co-expressed in Expi293) (UniProt Q6P9B9); test: affinity co-purification of co-expressed subunits
[2] = target: INTAC shoulder module (INTS5-INTS8 module), immobilised on IgG resin (UniProt Q6P9B9); test: pull-down
[3] = target: INTAC auxiliary module (INTS10-13-14-15 module), immobilised on IgG resin (UniProt Q96N11); test: pull-down
[4] = target: INTAC RNA endonuclease module (INTS4-INTS9-INTS11 module), immobilised on IgG resin (UniProt Q96HW7); test: pull-down
[5] = target: purified INTAC auxiliary module (INTS10-13-14-15 module) (UniProt Q96N11); test: co-sedimentation
[6] = target: Flag-4×Protein A-INTS15 (co-expressed in Expi293) (UniProt Q96N11); test: affinity co-purification of co-expressed subunits
[7] = target: INTS4 (co-expressed in Expi293) (UniProt Q96HW7); test: affinity co-purification of co-expressed subunits

binding [1]: binds
Substance: INTS8 (co-expressed in Expi293) (from UniProt Q75QN2 1-995)

binding [2]: no binding | binding [3]: binds | binding [4]: no binding | binding [5]: binds
Substance: purified RACK7-KDM5C complex (from UniProt Q9ULU4 1-1186; P41229 1-1560)

binding [6]: binds
Substance: INTS10 (co-expressed in Expi293) (from UniProt Q9NVR2 1-710)

binding [6]: binds
Substance: INTS14 (co-expressed in Expi293) (from UniProt Q96SY0 1-518)

binding [6]: binds
Substance: INTS13 (co-expressed in Expi293) (from UniProt Q9NVM9 1-706)

binding [7]: binds
Substance: INTS9 (co-expressed in Expi293) (from UniProt Q9NV88 1-658)
